Results are given in words; binding and its absence hold for the method and conditions named. Some entries that bind do so weakly or less than the wild type. One block for each binder: values may come before it.
How the values were obtained:
Experiment in all cases: two-hybrid; genes or gene fragments cloned into pMM5 and pMM6, transformed into SGY37 and YPH500
[1] = target: Cdc42-Q61L (S. cerevisiae) (UniProt P19073)
[2] = target: Cdc42-G12V (S. cerevisiae) (UniProt P19073)
[3] = target: Cdc42-D57Y (S. cerevisiae) (UniProt P19073)
[4] = target: Rho1-G19V (S. cerevisiae) (UniProt P06780)
[5] = target: T1, Rho1-Q68H (S. cerevisiae) (UniProt P06780)
T1 sequence: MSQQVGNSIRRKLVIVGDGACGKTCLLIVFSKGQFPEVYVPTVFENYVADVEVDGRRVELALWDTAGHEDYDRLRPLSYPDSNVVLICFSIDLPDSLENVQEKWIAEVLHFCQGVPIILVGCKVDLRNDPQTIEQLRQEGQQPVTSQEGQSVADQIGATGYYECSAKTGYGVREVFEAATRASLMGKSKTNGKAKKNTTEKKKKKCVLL

Amino acid sequences for entries named in this document (tags omitted). A change or cut given only in a name is not applied to a line headed by its entry.
UniProt P19073: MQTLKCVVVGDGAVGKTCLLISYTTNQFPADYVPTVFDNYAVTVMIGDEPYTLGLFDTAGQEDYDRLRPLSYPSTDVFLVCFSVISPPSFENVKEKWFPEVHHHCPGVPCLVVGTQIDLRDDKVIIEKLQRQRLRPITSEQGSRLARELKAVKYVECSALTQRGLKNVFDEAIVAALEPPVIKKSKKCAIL

Rho1 (S. cerevisiae) = Rho1 (S. cerevisiae) (UniProt P06780)
Cdc42 (S. cerevisiae) = Cdc42 (S. cerevisiae) (UniProt P19073)
[6] = target: Rho1-G22A (S. cerevisiae) (UniProt P06780)

- binding [1]: binds
- binding [2]: binds
- binding [3]: binds
- binding [4]: binds
- binding [5]: binds
- binding (Rho1 (S. cerevisiae)): binds
- binding (Cdc42 (S. cerevisiae)): binds
- binding [6]: binds
B1: Gps1-1-290 (N-terminal 290 residues of Gps1) (domain or fragment, UniProt Q99299 1-290)
chain: MIIRAPIRTKTKSFRGDQMDFKFPSNESLPRGTLEEYHLNNHHLLNDVFAAENGVSRDEDGNSQTLSDYTSTSNTNTNSGYSSNGYYSFANISDNTTSSPRIVINQNETARLTSSDSNKSDFFASHDFPGNDSLHYSSSNVVKNQLHSMEAIPEGNITGSISTAFQTIPTADNVSYDIAPSSASSLLPRKSTSKSAILPSTQEAKPMTKLNMEKDIKTIELNNSVVPKPKKKLNRVPTIRRVESSRFSNSRYSSSVSSKSSSSRCSLKRSKAIRCKGGLLYYFTSLGIKI

- binding (Rho1 (S. cerevisiae)): binds
- binding (Cdc42 (S. cerevisiae)): binds
B2: Gps1 (GTPase-mediated polarity switch 1) (protein, UniProt Q99299 1-758)
chain: MIIRAPIRTKTKSFRGDQMDFKFPSNESLPRGTLEEYHLNNHHLLNDVFAAENGVSRDEDGNSQTLSDYTSTSNTNTNSGYSSNGYYSFANISDNTTSSPRIVINQNETARLTSSDSNKSDFFASHDFPGNDSLHYSSSNVVKNQLHSMEAIPEGNITGSISTAFQTIPTADNVSYDIAPSSASSLLPRKSTSKSAILPSTQEAKPMTKLNMEKDIKTIELNNSVVPKPKKKLNRVPTIRRVESSRFSNSRYSSSVSSKSSSSRCSLKRSKAIRCKGGLLYYFTSLGIKIKKKLRKLRLVLRRRLFSYNVQKVPSATNSKTTKSKANINNKSKKRGTNLVNKNSNSTPRQKKSQRYVSNLQRSISSKSLVPVLAPQKKTKPLTVDTKFKANHPQSEDSKVGSNTPRSPLVSYTPSLRRTNSSIRRAASILTASATMTPANNKNSFISVPDNVSHAVTRNSSMYSRSRLVRSKPSTALNAIARQPSIVVENKVIPLSMNRYSIKEEDEYVIDTSSMRELSPVNSVCSSDYDRESSESYSNYADAMETTEVDNKDRVECNNEIQNVDANNEETSNEESYNLMKHYLSTVIAQRIMLRVQIARIQNYKSNVVYMNKSAETNSTIYEDLVDSLLTEYEADGSSSQIFDGVTVRADEEEEEDEDDEDDEEEEEENDDEEDEEDEEDDEDDEEEEEKRKEGEGRNLAKEVDELAELSPMRKQSDLSITLRSPFAMLNPAYSNSIISLPTGVVKRSLTLPVGMKI
